Positions count from the first letter of the chain named. No constants are given. Whether binding was seen depends on the method and setting. For some of these results: In cells and extracts the contact can be indirect. Some results given as binding are weak or reduced against the parent protein; the word gives no strength. For some of these results: Where a sequence is shown, tags or fusion partners need not be part of it.
T1: His6-Snu17p F95A,K96D,I97A (operon co-expression) (S. cerevisiae) (UniProt P40565)
T1 sequence: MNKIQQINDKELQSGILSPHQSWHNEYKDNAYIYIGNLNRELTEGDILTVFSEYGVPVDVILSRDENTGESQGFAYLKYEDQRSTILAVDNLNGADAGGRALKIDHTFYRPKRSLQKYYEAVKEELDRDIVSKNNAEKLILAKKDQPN

Amino acid sequences for entries named in this document (tags omitted). A change or cut given only in a name is not applied to a line headed by its entry.
UniProt P46947: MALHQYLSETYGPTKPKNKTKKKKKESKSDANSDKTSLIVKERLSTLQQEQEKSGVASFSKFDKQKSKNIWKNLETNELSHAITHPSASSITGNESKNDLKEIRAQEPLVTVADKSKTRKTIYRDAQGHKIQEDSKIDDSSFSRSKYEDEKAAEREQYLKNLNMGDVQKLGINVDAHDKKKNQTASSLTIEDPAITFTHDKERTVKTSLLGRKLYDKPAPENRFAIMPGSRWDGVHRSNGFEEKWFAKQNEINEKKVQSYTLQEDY

T2: His6-Snu17p (wild type, operon co-expression) (S. cerevisiae) (UniProt P40565)
T2 sequence: T1 sequence with A95F, D96K, A97I

B1: Bud13p peptide (residues 225-238) (peptide, UniProt P46947 225-238)
peptide: AIMPGSRWDGVHRS
B2: Pml1p (operon co-expression) (protein, UniProt Q07930 1-204)
chain: MFHRRKRPYNTRNYGHDDKKFKSQYIDIMPDFSPSGLLELESNNKEGIALKHVEPQDAISPDNYMDMLGLEARDRTMYELVIYRKNDKDKGPWKRYDLNGRSCYLVGRELGHSLDTDLDDRTEIVVADIGIPEETSSKQHCVIQFRNVRGILKCYVMDLDSSNGTCLNNVVIPGARYIELRSGDVLTLSEFEEDNDYELIFMNV

Legend:
[1] = target: Snu17p (residues 1-113) (S. cerevisiae) (UniProt P40565); experiment: ITC; VP-ITC, 25 °C, NMR buffer (20 mM sodium phosphate pH 6.3, 25 mM NaCl, 2 mM DTT or TCEP); Snu17p (residues 1-113) 30-70 uM in the cell, Bud13p ligands 0.6-1.1 mM in the syringe; one- or two-step binding models; both purified
[2] = target: Snu17p (residues 1-113) (S. cerevisiae) (UniProt P40565); experiment: NMR titration; 1H,15N correlation (HSQC) spectra of 15N-labelled Snu17p (residues 1-113) on addition of Bud13p peptides; 298 K; 20 mM sodium phosphate pH 6.3, 25 mM NaCl, 2 mM DTT or TCEP; both purified
[3] = target: T1, His6-Snu17p F95A,K96D,I97A (operon co-expression) (S. cerevisiae); experiment: pull-down; one-step Ni-NTA purification of His6-Snu17p, Bud13p and Pml1p co-expressed from an operon in E. coli; fractions on Coomassie-stained denaturing gels
[4] = target: T2, His6-Snu17p (wild type, operon co-expression) (S. cerevisiae); experiment: as above

Binder | binding [1] | binding [2] | binding [3] | binding [4]
B1 | binds weakly | binds weakly |  | 
B2 |  |  | binds | binds

Source: publication PMC4192513, “A Novel Protein-Protein Interaction in the RES (REtention and Splicing) Complex” (The Journal of Biological Chemistry, 2014)
